Results from patent US7711497B2, “Method of identifying calcium-binding sites in gamma-crystallin useful for management of cataract” (Council of Scientific and Industrial Research, priority 2002, dated 2010).
Part of at least one peptide drawing is inferred or uncertain, most often the ends. Where no end group is shown, it is not given here.

Assays:
[1] = 45Ca overlay method (peptide dot-blot); type: binding; conditions: dot-blot on polyvinylidene difluoride membrane
Description: Calcium Binding Studies by ^45Ca Overlay Method-Calcium binding to peptides was done by ^45Ca overlay method of Maruyama et al, 133). […] of peptides were spotted onto a polyvinylidene difluoride membrane by dot-blot apparatus. The membrane was equilibrated in a solution containing 10-mM imidazole HCl. pH 6.8, 60 mM KCl, 5 mM MgCl2 and then incubated for 15 min at 25° C. in the same buffer containing 1 microCi/mil ^45Ca. The membrane was then rinsed twice in 45% ethanol, blotted dry, and exposed to PhosphorImager screen, and the signal was read in Phosphorimager (Fuji Bas-1800).
The wild type peptide g3, its variants (g3a and g3b) and s3a were spotted onto a polyvinylidene difluoride membrane and detected by ^45Ca overlay. For a positive control, EF-hand peptide corresponding to site 4 of rat neuronal calcium sensor-1 was used; bovine serum albumin (BSA) was used as a negative control.

[2] = Stains-all binding assay (induced CD); conditions: peptides; dye 43 μM
Description: Stains-all Binding Assay-Aliquots of protein solutions were added to the Stains-all solution and mixed gently. Circular dichroism induced in the achiral dye upon binding to the protein was measured in the visible region of the spectrum (400-700 nm). The dye solution and the crystallins were prepared in 2 mM MOPS buffer, pH 7.2, containing 30% ethylene glycol (34, 35). Ellipticities were expressed in millidegrees.
CD spectra of Stains-all induced upon binding to crystallin were recorded in 2 mM MOPS buffer, pH 7.2, containing 30% ethylene glycol, path length 1 cm. Dye concentration in all experiments was 16 μM. The ellipticity data are represented in millidegrees. A, CD spectra recorded with increasing concentration of -crystallin; 1, 0.026 mg/ml (---); 2, 0.078 mg/ml (- - -); 3, 0.13 mg/ml -.-.-. and 4, 0.156 mg/ml (. . .). B, effect of calcium on Stains-all--crystallin complex spectra. Calcium was added in the dye-protein mixture (-crystallin concentration was 115μ/ml), and CD was recorded. […]
CD spectra of Stains-all induced upon binding to peptides were recorded. […] The ellipticity data are represented in millidegrees. a, CD spectra were recorded with increasing concentration of the wild type peptide g3; 0.013 mg/ml (---), 0.037 mg/ml (- - -), and 0.057 mg/ml (. . . .). b, effect of calcium on Stains-all-peptide complex. […]

RMRIYERDDFRGQMSEITDDCPSLQDRFHLTEVHSLNVLEGS [g3]
45Ca binding [1]: binds calcium as strongly as the EF-hand peptide of neuronal calcium sensor-1
Stains-all binding, induced CD band [2]: induces a strong J band and a weak band
